Results from PMC5438731.
No constants are given. Whether binding was seen depends on the method and setting. In cells and extracts the contact can be indirect. Some entries that bind do so weakly or less than the wild type.

The chains behind the UniProt entries cited, without tags or fusion partners.
UniProt P10415: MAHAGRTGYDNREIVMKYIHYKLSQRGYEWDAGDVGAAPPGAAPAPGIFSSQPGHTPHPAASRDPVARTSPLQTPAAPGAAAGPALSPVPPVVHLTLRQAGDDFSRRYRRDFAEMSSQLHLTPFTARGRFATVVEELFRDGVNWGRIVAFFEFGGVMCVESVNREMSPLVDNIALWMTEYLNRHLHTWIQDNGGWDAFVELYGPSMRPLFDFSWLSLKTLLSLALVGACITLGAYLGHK

Biological target: Beclin1 (human (endogenous in MCF-7)) (UniProt Q14457)
Test: co-IP; endogenous proteins; MCF-7 and MCF-7^TR5 cells lysed in ice-cold RIPA buffer; primary antibody covalently immobilised on protein A/G agarose, 1 h to 3 h at 4°C, washed with TBS five times, Western blotting; for Nur77-Ku80 also MCF-7^TR5 cells with or without Z-LIG (50 μM) for 24 h

Bcl-2 (from UniProt P10415 1-239)
binding: binds
